Source: paper PMC9537699
Residue numbers refer to the chain shown, from its start. Results are given in words; binding and its absence hold for the method and conditions named. In cells and extracts the contact can be indirect. Some entries that bind do so weakly or less than the wild type. Where a sequence is shown, tags or fusion partners need not be part of it.

By UniProt entry, the sequences of proteins in these tests, tags left out.
UniProt P33176: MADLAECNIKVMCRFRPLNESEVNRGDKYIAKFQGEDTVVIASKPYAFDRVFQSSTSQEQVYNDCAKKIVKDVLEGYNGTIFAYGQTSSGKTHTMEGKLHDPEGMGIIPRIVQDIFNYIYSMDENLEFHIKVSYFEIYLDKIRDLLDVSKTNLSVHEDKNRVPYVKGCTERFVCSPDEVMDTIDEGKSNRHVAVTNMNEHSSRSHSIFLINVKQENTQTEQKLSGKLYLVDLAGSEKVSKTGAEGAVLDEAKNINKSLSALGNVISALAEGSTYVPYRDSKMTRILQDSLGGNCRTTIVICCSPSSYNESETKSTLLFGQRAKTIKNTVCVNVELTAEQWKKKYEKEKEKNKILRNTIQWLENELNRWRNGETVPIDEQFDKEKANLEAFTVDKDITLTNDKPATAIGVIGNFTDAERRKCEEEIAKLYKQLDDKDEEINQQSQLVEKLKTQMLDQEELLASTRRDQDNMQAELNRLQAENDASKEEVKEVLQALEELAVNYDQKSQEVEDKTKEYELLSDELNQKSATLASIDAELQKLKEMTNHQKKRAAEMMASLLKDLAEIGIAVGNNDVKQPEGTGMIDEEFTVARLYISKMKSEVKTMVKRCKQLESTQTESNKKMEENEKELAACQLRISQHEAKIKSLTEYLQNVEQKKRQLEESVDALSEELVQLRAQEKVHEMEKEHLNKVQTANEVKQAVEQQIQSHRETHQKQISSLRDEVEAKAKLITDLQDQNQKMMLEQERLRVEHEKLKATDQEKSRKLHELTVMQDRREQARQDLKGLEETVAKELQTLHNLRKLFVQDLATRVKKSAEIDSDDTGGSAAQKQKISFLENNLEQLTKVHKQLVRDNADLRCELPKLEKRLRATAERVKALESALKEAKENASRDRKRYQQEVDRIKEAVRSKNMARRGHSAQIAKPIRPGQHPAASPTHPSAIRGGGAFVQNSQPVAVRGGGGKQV

Key:
[1] = molecular target: T1, FLAG-tagged Nesprin-4 with the WD > AA mutation (Nesp4^AA) (mouse) (UniProt Q8CII8); test: co-IP; HEK293 cells transfected with FLAG-tagged Nesprin-4 (WT or AA) or an empty FLAG control, lysed in RIPA buffer 48 h later; anti-FLAG M2 beads, 1-2 h at 4°C; western blot probed with anti Kif5b
T1 sequence: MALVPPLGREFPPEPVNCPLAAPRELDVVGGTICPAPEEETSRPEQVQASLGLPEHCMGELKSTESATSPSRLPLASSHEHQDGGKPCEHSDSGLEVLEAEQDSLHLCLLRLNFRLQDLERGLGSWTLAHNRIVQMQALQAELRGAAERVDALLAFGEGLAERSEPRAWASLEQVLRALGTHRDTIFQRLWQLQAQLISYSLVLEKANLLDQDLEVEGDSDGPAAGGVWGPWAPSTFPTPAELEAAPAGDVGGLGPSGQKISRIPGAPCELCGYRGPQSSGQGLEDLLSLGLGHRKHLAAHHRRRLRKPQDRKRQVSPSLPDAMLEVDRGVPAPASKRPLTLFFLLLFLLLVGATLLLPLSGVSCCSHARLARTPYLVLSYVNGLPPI

[2] = molecular target: T2, FLAG-tagged Nesprin-4 wild type (Nesp4^WT) (mouse) (UniProt Q8CII8); test: as above
T2 sequence: T1 sequence with A245W, A246D

In the case of “Kif5b (kinesin-1 heavy chain) (from UniProt P33176 1-963)”, the binding [1] is reported as “no binding” and the binding [2] is reported as “binds”.
